Reference: US20060211072A1, “Process, composition and kit for providing a stable whole blood calibrator/control” (Streck, Inc., priority 2005, published 2006)
Some results were stated once for a whole list of compounds, not compound by compound.

System: red blood cell hemolysis
Test: Long-term stability of whole blood glucose control with antimicrobial substances
Type: cell-based
Conditions: added to whole blood glucose control; effective amounts at least about 5-10 mg/dL

Structure (SMILES): C[C@H]1c2cccc(O)c2C(=O)C2=C(O)[C@]3(O)C(=O)C(C(N)=O)=C(O)[C@@H](N(C)C)[C@@H]3[C@@H](O)[C@@H]21 [doxycycline]
- period of preventing or retarding red blood cell hemolysis (long-term stability): greater than 40 days

Structure (SMILES): CN(C)c1ccc(O)c2c1C[C@H]1C[C@H]3[C@H](N(C)C)C(O)=C(C(N)=O)C(=O)[C@@]3(O)C(O)=C1C2=O [minocycline]
- period of preventing or retarding red blood cell hemolysis (long-term stability): greater than 40 days
